{
  "source": "paper PMC12174100",
  "binders": {"B1": {"name": "Sperm-associated antigen 6 (SPAG6) (protein, UniProt O75602 1-509)", "chain": "MSQRQVLQVFEQYQKARTQFVQMVAELATRPQNIETLQNAGVMSLLRTLLLDVVPTIQQTAALALGRLANYNDDLAEAVVKCDILPQLVYSLAEQNRFYKKAAAFVLRAVGKHSPQLAQAIVDCGALDTLVICLEDFDPGVKEAAAWALRYIARHNAELSQAVVDAGAVPLLVLCIQEPEIALKRIAASALSDIAKHSPELAQTVVDAGAVAHLAQMILNPDAKLKHQILSALSQVSKHSVDLAEMVVEAEIFPVVLTCLKDKDEYVKKNASTLIREIAKHTPELSQLVVNAGGVAAVIDCIGSCKGNTRLPGIMMLGYVAAHSENLAMAVIISKGVPQLSVCLSEEPEDHIKAAAAWALGQIGRHTPEHARAVAVTNTLPVLLSLYMSTESSEDLQVKSKKAIKNILQKCTYLPALEPFLYDAPPNILKHVVGQFSKVLPHDSKARRLFVTSGGLKKVQEIKAEPGSLLQEYINSINSCYPEEIVRYYSPGYSDTLLQRVDSYQPLNN"}},
  "target": "T1, Dual-specificity phosphatase 1 (DUSP1) (human (endogenous in U266 and RPMI-8226)) (UniProt P28562)",
  "T1 sequence": "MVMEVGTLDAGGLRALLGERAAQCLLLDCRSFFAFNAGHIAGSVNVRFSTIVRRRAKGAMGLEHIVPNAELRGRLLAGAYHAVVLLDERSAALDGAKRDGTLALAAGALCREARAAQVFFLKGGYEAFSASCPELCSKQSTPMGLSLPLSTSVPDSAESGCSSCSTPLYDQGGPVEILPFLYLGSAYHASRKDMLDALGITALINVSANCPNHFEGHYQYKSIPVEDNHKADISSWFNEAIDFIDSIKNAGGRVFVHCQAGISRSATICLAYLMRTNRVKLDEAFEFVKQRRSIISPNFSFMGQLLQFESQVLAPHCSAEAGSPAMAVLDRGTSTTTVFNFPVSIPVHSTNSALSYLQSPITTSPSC",
  "test": "co-IP; Protein A/G magnetic bead immunoprecipitation kit; lysates of U266 and RPMI-8226 cells; antibody-bead complex incubated with the protein sample at 25°C; eluted with SDS-PAGE loading buffer, Western blot; different antibodies used for immunoprecipitation",
  "note": "No constants are given. Whether binding was seen depends on the method and setting. In cells and extracts the contact can be indirect. Some binding calls cover weakened binding; strength is not graded here.",
  "data": [
    {"binder": "B1", "values": [
      {"measurement": "binding", "value": "binds"}
    ]}
  ]
}
